We go through 14 compounds from article PMC7473772 (eLife, 2020).

Structures can show the parent of a compound that is named as a salt.

This series concerns tbaqp2 null (AQP2-KO). Description: Drug sensitivity assay (resazurin). The format is cell-based, Trypanosoma brucei brucei. Conditions: legend: EC50(aqp2/3 null)/EC50(TbAQP2-WT); table columns: AQP2-KO and control 2T1.
For `Cc1ccc(OCCCCCOc2ccc(C(=N)N)cc2)cc1` [CHI/1/72/1, 4-(5-(p-tolyloxy)pentyyloxy)benzimidamide hydrochloride hydrate], the “RF (Resistance Factor)” value is on record as 0.82.

Take `N=C(N)c1ccc(-c2ccc(-c3ccc(C(=N)N)cc3)o2)cc1` [DB75]: the “RF (Resistance Factor)” value was determined as 0.40.

On to `N=C(N)c1ccc(-c2ccc(-c3ccc(C(=N)N)cc3)[se]2)cc1` [DB1213], for which the “RF (Resistance Factor)” value came to 0.55.

Turning to `N=C(N)c1ccc(/N=N/Nc2ccc(C(=N)N)cc2)cc1` [Diminazene], the “RF (Resistance Factor)” value was 0.89.

`CC[n+]1c(-c2ccccc2)c2cc(N)ccc2c2ccc(N)cc21` [Ethidium]: the “RF (Resistance Factor)” value was determined as 1.05.

Turning to `CC[n+]1c(-c2ccccc2)c2cc(N/N=N/c3cccc(C(=N)N)c3)ccc2c2ccc(N)cc21` [Isometamidium], the “RF (Resistance Factor)” value amounted to 0.91.

Regarding `N=C(N)c1ccc(OCCCCCOc2ccc(C(=N)N)cc2)cc1` [Pentamidine], the “RF (Resistance Factor)” value was determined as 9.08.

Regarding `CNC(=N)c1ccc(OCCCCCOc2ccc(C(=N)NC)cc2)cc1` [RT-30], the “RF (Resistance Factor)” value came to 1.35.

For `c1cc(C2=NCCN2)ccc1OCCCCCOc1ccc(C2=NCCN2)cc1` [RT-32], the “RF (Resistance Factor)” value is reported as 1.23.

`N=C(N)c1ccc(OCCCCCOc2ccc(N)cc2)cc1` [RT-36]: the “RF (Resistance Factor)” value was 0.90.

Regarding `N=C(N)c1ccc(OCCCCCOc2ccc(C(=N)N)cc2Cl)c(Cl)c1` [RT-43], the “RF (Resistance Factor)” value is reported as 1.33.

For `N=C(N)c1ccc(SCCCCCSc2ccc(C(=N)N)cc2)cc1` [RT-48], the “RF (Resistance Factor)” value came to 6.97.

For the compound `N=C(N)c1ccc(NCCCCCNc2ccc(C(=N)N)cc2)cc1` [RT-50], the “RF (Resistance Factor)” value worked out at 17.5.

With `N=C(N)c1ccc(OCCCCCOc2ccc(C(=N)N)cn2)nc1` [RT-52], the “RF (Resistance Factor)” value was 5.79.
